Assay results

The results are deposited in PubChem (AID2667; NCATS, 2010).

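Mouse embryonic fibroblasts stained with an antibody against phosphorylated ribosomal protein S6 to image mTORC1 pathway activity after 24 hours of compound exposure. Each compound was tested as a concentration series from about 0.0024 to 38 µM. The number is the fitted concentration giving half-maximal inhibition of the phospho-S6 signal; a lower value means a more potent inhibitor. Calls follow curve class and fitted potency: active scores fall between 40 and 100, inconclusive between 1 and 39, and inactive scores are zero.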

Values are in nM. All entries here are filed as inconclusive. These entries are mostly ones the record files as inconclusive; other results of the assay are not listed here. Potencies fitted to partial, single-point or poorly fitting curves are rough. Activity scores are not listed here.

structure | fitted potency (nM) | curve
CNCCC(Oc1ccc(C(F)(F)F)cc1)c1ccccc1 (stereo not shown) | 23280 | falling, single point
CNCC[C@H](Oc1ccc(C(F)(F)F)cc1)c1ccccc1 | 26121 | falling, partial curve, poor fit
CC1=C(/C=C/C(C)=C/C=C/C(C)=C/C(=O)Nc2ccc(O)cc2)C(C)(C)CCC1 | 13091 | falling, single point
Clc1ccc(C(c2ccc(Cl)cc2)n2cc[n+](CC(OCc3ccc(Cl)cc3Cl)c3ccc(Cl)cc3Cl)c2)cc1 (stereo not shown) | 16481 | falling, single point
COc1cc([C@@H]2c3cc4c(cc3[C@H](O)C3COC(=O)[C@@H]32)OCO4)cc(OC)c1OC (stereo partly shown) | 14.7 | falling, full curve, poor fit
COc1cc2nc(N3CCN(C(=O)C4COc5ccccc5O4)CC3)nc(N)c2cc1OC (stereo not shown) | 26121 | falling, partial curve, poor fit
COc1ccc2c(c1)/C(=C/c1cnc[nH]1)C(=O)N2 | 26121 | falling, partial curve, poor fit
CC(=O)O[C@H]1C(=O)[C@@]2(C)C([C@H](OC(=O)c3ccccc3)[C@]3(O)C[C@H](OC(=O)[C@H](O)[C@@H](NC(=O)c4ccccc4)c4ccccc4)C(C)=C1C3(C)C)[C@]1(OC(C)=O)CO[C@@H]1C[C@@H]2O (stereo partly shown) | 130.9 | falling, full curve, poor fit
CN(C)CCCN1c2ccccc2CCc2ccc(Cl)cc21 | 26121 | falling, single point
Cc1ccc(S(=O)(=O)N[C@@H](Cc2ccccc2)C(=O)CCl)cc1 | 20749 | falling, single point
COc1ccccc1N1CCN(CC(O)COc2cccc3ccccc23)CC1 (stereo not shown) | 23280 | falling, partial curve, poor fit
CCC1(O)CC2CN(CCc3c([nH]c4ccccc34)[C@@](C(=O)OC)(c3cc4c(cc3OC)N(C)C3[C@]45CCN4CC=C[C@@](CC)([C@@H](OC(C)=O)[C@]3(O)C(=O)OC)[C@H]45)C2)C1 (stereo partly shown) | 3690 | falling, partial curve, poor fit
CN(C)CCC=C1c2ccccc2C=Cc2ccccc21 | 26121 | falling, partial curve, poor fit
OCCN1CCN(CCCN2c3ccccc3Sc3ccc(C(F)(F)F)cc32)CC1 | 23280 | falling, single point
CN1CCc2cc(O)cc3c2[C@H]1Cc1ccc(O)c(O)c1-3 | 14689 | falling, single point
COC(=O)C1=C(C)NC(C)=C(C(=O)OC(C)(C)CN(C)CCC(c2ccccc2)c2ccccc2)C1c1cccc([N+](=O)[O-])c1 (stereo not shown) | 26121 | falling, single point
Fc1ccc([C@@H]2CCNC[C@H]2COc2ccc3c(c2)OCO3)cc1 | 26121 | falling, single point

Some entries from above, unchanged:

structure	fitted potency (nM)	curve
CN1CCc2cc(O)cc3c2[C@H]1Cc1ccc(O)c(O)c1-3	14689	falling, single point
CCC1(O)CC2CN(CCc3c([nH]c4ccccc34)[C@@](C(=O)OC)(c3cc4c(cc3OC)N(C)C3[C@]45CCN4CC=C[C@@](CC)([C@@H](OC(C)=O)[C@]3(O)C(=O)OC)[C@H]45)C2)C1 (stereo partly shown)	3690	falling, partial curve, poor fit